No constants are given. Whether binding was seen depends on the method and setting. Some binding calls cover weakened binding; strength is not graded here.
Molecular target: RIPK1 fused to the GAL4 DNA-binding domain (human) (UniProt Q13546)
Assay: two-hybrid

The chains behind the UniProt entries cited, without tags or fusion partners.
UniProt Q13546: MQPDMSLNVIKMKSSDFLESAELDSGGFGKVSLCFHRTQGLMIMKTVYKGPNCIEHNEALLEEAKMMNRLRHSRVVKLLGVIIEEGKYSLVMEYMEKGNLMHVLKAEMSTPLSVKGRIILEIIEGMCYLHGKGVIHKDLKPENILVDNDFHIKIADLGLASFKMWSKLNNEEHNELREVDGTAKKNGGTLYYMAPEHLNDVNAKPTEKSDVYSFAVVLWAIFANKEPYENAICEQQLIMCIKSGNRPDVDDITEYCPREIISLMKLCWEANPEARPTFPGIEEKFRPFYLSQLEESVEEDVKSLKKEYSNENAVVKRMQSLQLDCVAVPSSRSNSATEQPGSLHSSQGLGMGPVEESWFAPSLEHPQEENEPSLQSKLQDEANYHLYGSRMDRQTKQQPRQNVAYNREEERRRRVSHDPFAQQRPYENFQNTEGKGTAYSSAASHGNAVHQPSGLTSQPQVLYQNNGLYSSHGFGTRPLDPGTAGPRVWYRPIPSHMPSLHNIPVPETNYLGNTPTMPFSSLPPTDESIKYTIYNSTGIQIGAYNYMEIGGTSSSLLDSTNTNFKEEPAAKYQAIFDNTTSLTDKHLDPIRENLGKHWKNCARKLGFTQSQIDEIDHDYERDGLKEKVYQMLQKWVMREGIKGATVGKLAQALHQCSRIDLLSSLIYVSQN

## RIPK3 fused to the GAL4 transcription activation domain (from UniProt Q9Y572-1 1-518)
  binding: binds
